Results as given in the supplement of paper PMC6078165.
Values are relative to the signal before dosing, not to a vehicle control; the signal also falls without drug.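 Fibroblast labels name human fibroblasts: mostly primary ones from tissues such as uterus (C12385, HUF), lung (H6013), bone (Hs27A), adrenal (HADF) and skin (WS1), plus mammary HMF and breast cancer-associated Hs343T. The cancer cells are basal-like or mesenchymal-like triple-negative breast cancer lines. The paper calls a changed response a hit when it shifts by more than 3x the replicate standard deviation. The tissue of the other fibroblasts is not given here.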

System: MDAMB231
Test: relative JC-1 red fluorescence (viability) vs pre-drug, coculture with fibroblast (fraction); higher = more viable cancer cells
Description: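 JC-1 labelled TNBC cells cocultured 1:1 (1,500 cells each) with CellTrace Violet stained primary or stromal fibroblasts in 384-well plates in FluoroBrite medium, treated with one of 42 anticancer drugs at 0.1, 1, 10 or 100 uM. JC-1 red fluorescence (mitochondrial integrity in cancer cells only) was read by plate reader every 8 h for 72 h. Values are normalised to each well's pre-drug value. The stock of one drug was tenfold lower, so its dose labels may be too high.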

CO[C@H]1C[C@@H]2CC[C@@H](C)[C@@](O)(O2)C(=O)C(=O)N2CCCC[C@H]2C(=O)O[C@H]([C@H](C)C[C@@H]2CC[C@@H](OCCO)[C@H](OC)C2)CC(=O)[C@H](C)/C=C(\C)[C@@H](O)[C@@H](OC)C(=O)[C@H](C)C[C@H](C)/C=C/C=C/C=C/1C [Everolimus]
relative JC-1 red fluorescence
Conditions | 8 h | 16 h | 24 h | 32 h | 40 h | 48 h | 56 h | 64 h | 72 h
10 µM, coculture fibroblast: C12385 | 0.782 | 0.849 | 0.7082 | 0.838 | 0.829 | 0.81 | 0.781 | 0.778 | 0.75
10 µM, coculture fibroblast: H6013 | 0.9699 | 0.98 | 0.952 | 0.9714 | 0.9578 | 0.9121 | 0.9429 | 0.917 | 0.888
10 µM, coculture fibroblast: H6019 | 0.838 | 0.864 | 0.744 | 0.847 | 0.837 | 0.829 | 0.7981 | 0.781 | 0.758
10 µM, coculture fibroblast: H6076 | 0.857 | 0.84 | 0.929 | 0.871 | 0.954 | 0.923 | 0.908 | 0.9856 | 0.9828
10 µM, coculture fibroblast: H6231 | 0.868 | 0.829 | 0.867 | 0.825 | 0.954 | 0.935 | 0.916 | 0.9242 | 0.95
10 µM, coculture fibroblast: HADF | 0.958 | 0.919 | 0.965 | 0.854 | 0.96 | 0.911 | 0.929 | 0.918 | 0.879
10 µM, coculture fibroblast: HCFa | 0.967 | 0.97 | 0.9683 | 0.966 | 0.938 | 0.892 | 0.902 | 0.8812 | 0.8615
10 µM, coculture fibroblast: HCPF | 0.956 | 0.859 | 0.905 | 0.921 | 0.931 | 0.947 | 0.93 | 0.904 | 0.879
10 µM, coculture fibroblast: HHSteC | 0.968 | 0.982 | 0.951 | 0.931 | 0.905 | 0.866 | 0.862 | 0.849 | 0.817
10 µM, coculture fibroblast: HMF | 0.912 | 0.894 | 0.906 | 0.846 | 0.913 | 0.943 | 0.92 | 0.901 | 0.884
10 µM, coculture fibroblast: HPFa | 0.91 | 0.86364 | 0.867 | 0.936 | 0.943 | 0.878 | 0.954 | 0.851 | 0.919
10 µM, coculture fibroblast: HUF | 0.872 | 0.877 | 0.914 | 0.866 | 0.84 | 0.825 | 0.801 | 0.798 | 0.781
10 µM, coculture fibroblast: Hs5 | 0.842 | 0.876 | 0.866 | 0.76 | 0.963 | 0.964 | 0.929 | 0.9 | 0.886
10 µM, coculture fibroblast: Hs27A | 0.938 | 0.927 | 0.914 | 0.927 | 0.8983 | 0.795 | 0.86 | 0.8557 | 0.8188
10 µM, coculture fibroblast: Hs343T | 0.945 | 0.844 | 0.728 | 0.881 | 0.901 | 0.885 | 0.834 | 0.893 | 0.958
10 µM, coculture fibroblast: WS1 | 0.831 | 0.805 | 0.802 | 0.861 | 0.782 | 0.7785 | 0.852 | 0.833 | 0.802
100 µM, coculture fibroblast: C12385 | 0.69 | 0.765 | 0.515 | 0.4942 | 0.246 | 0.195 | 0.188 | 0.219 | 0.231
100 µM, coculture fibroblast: H6013 | 0.789 | 0.801 | 0.878 | 0.875 | 0.68 | 0.523 | 0.47 | 0.449 | 0.446
100 µM, coculture fibroblast: H6019 | 0.805 | 0.787 | 0.606 | 0.463 | 0.342 | 0.288 | 0.277 | 0.32 | 0.326
100 µM, coculture fibroblast: H6076 | 0.855 | 0.812 | 0.523 | 0.468 | 0.426 | 0.424 | 0.458 | 0.485 | 0.518
100 µM, coculture fibroblast: H6231 | 0.955 | 0.921 | 0.896 | 0.877 | 0.853 | 0.824 | 0.792 | 0.781 | 0.763
100 µM, coculture fibroblast: HADF | 0.93315 | 0.901 | 0.78 | 0.585 | 0.429 | 0.345 | 0.305 | 0.289 | 0.284
100 µM, coculture fibroblast: HCFa | 0.963 | 0.897 | 0.864 | 0.752 | 0.607 | 0.444 | 0.386 | 0.317 | 0.306
100 µM, coculture fibroblast: HCPF | 0.847 | 0.737 | 0.61 | 0.578 | 0.556 | 0.542 | 0.538 | 0.534 | 0.544
100 µM, coculture fibroblast: HHSteC | 0.871 | 0.768 | 0.811 | 0.699 | 0.531 | 0.426 | 0.37 | 0.3793 | 0.388
100 µM, coculture fibroblast: HMF | 0.923 | 0.841 | 0.605 | 0.463 | 0.422 | 0.41 | 0.422 | 0.441 | 0.455
100 µM, coculture fibroblast: HPFa | 0.8015 | 0.833 | 0.856 | 0.686 | 0.551 | 0.457 | 0.3731 | 0.355 | 0.359
100 µM, coculture fibroblast: HUF | 0.833 | 0.814 | 0.784 | 0.594 | 0.501 | 0.504 | 0.503 | 0.551 | 0.56
100 µM, coculture fibroblast: Hs5 | 0.8721 | 0.802 | 0.587 | 0.53 | 0.532 | 0.53969 | 0.575 | 0.589 | 0.593
100 µM, coculture fibroblast: Hs27A | 0.9326 | 0.908 | 0.823 | 0.804 | 0.722 | 0.575 | 0.537 | 0.454 | 0.377
100 µM, coculture fibroblast: Hs343T | 0.883 | 0.8177 | 0.512 | 0.445 | 0.409 | 0.399 | 0.415 | 0.433 | 0.4439
100 µM, coculture fibroblast: WS1 | 0.6881 | 0.667 | 0.439 | 0.34 | 0.237 | 0.2 | 0.206 | 0.247 | 0.259
